Measured data: PubChem BioAssay AID1159579 (Peter MacCallum Cancer Centre, 2015)
Purpose: 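Follow-up screen seeking modulators of motility in lymphatic endothelial cells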 (follow-up of hits). System: human dermal lymphatic endothelial cells. Knock-down reagent: single siRNA against human genes, 25 nM. Read-out: 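High content images of wound closure area and cell nuclei counts, each the average of two wells, expressed against mock transfection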. Scale: migration relative to mock: higher = more migration into the scratch; mean nuclei count: higher = more cells remaining. Rule for the call: 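Called active when the migration ratio is 0.6 or lower (impaired) or 1.3 or higher (accelerated), but inactive whenever the mean nuclei count falls under 3300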. Meaning of the calls: active = migration changed (impaired or accelerated); inactive = no migration change, or too few cells.
This is an unselected part of about 2,000 reagents tested. 549 of all reagents (27%) were called active. 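Some migration ratios are negative; siRNAs with too few cells are inactive whatever their migration ratio.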 The numbers tell different reagents against one gene apart. The record does not give: the time to read-out.

gene | reagent | migration relative to mock | migration and cell number class | mean nuclei count | Call
SPDYE3 (speedy/RINGO cell cycle regulator family member E3) | 1 | 0.54 | migration reduced | 4861 | active
SPDYE3 (speedy/RINGO cell cycle regulator family member E3) | 2 | 0.92 | no change in migration or cell number | 5935 | inactive
SPDYE3 (speedy/RINGO cell cycle regulator family member E3) | 3 | 0.9 | no change in migration or cell number | 5594 | inactive
SPDYE3 (speedy/RINGO cell cycle regulator family member E3) | 4 | 0.82 | no change in migration or cell number | 4064 | inactive
SLC22A25 | 1 | 0.58 | migration reduced | 5768 | active
SLC22A25 | 2 | 0.5 | migration reduced | 5326 | active
SLC22A25 | 3 | 0.45 | migration reduced | 4200 | active
SLC22A25 | 4 | -1.16 | too few cells; migration not scored | 3104 | inactive
FBXW11 (F-box and WD repeat domain containing 11) | 1 | 0.57 | migration reduced | 5654 | active
FBXW11 (F-box and WD repeat domain containing 11) | 2 | 0.94 | no change in migration or cell number | 4870 | inactive
FBXW11 (F-box and WD repeat domain containing 11) | 3 | 0.53 | migration reduced | 4758 | active
FBXW11 (F-box and WD repeat domain containing 11) | 4 | 0.5 | migration reduced | 5236 | active
KCNQ2 (potassium voltage-gated channel subfamily Q member 2) | 1 | 0.74 | no change in migration or cell number | 5040 | inactive
KCNQ2 (potassium voltage-gated channel subfamily Q member 2) | 2 | 0.22 | migration reduced | 4300 | active
KCNQ2 (potassium voltage-gated channel subfamily Q member 2) | 3 | 0.5 | migration reduced | 5759 | active
KCNQ2 (potassium voltage-gated channel subfamily Q member 2) | 4 | 0.79 | no change in migration or cell number | 6896 | inactive
STK11IP (serine/threonine kinase 11 interacting protein) | 1 | 0.46 | migration reduced | 3554 | active
STK11IP (serine/threonine kinase 11 interacting protein) | 2 | 0.88 | no change in migration or cell number | 4490 | inactive
STK11IP (serine/threonine kinase 11 interacting protein) | 3 | 1.06 | no change in migration or cell number | 4196 | inactive
STK11IP (serine/threonine kinase 11 interacting protein) | 4 | 0.88 | no change in migration or cell number | 4710 | inactive
ASB14 (ankyrin repeat and SOCS box containing 14) | 1 | 0.39 | migration reduced | 5734 | active
ASB14 (ankyrin repeat and SOCS box containing 14) | 2 | 0.96 | no change in migration or cell number | 6464 | inactive
ASB14 (ankyrin repeat and SOCS box containing 14) | 3 | 0.79 | no change in migration or cell number | 4606 | inactive
ASB14 (ankyrin repeat and SOCS box containing 14) | 4 | 0.74 | no change in migration or cell number | 5693 | inactive
GDF3 (growth differentiation factor 3) | 1 | 0.84 | no change in migration or cell number | 5684 | inactive
GDF3 (growth differentiation factor 3) | 2 | 0.45 | migration reduced | 6088 | active
GDF3 (growth differentiation factor 3) | 3 | 0.12 | migration reduced | 4494 | active
GDF3 (growth differentiation factor 3) | 4 | -0.5 | migration reduced | 5164 | active
ATP6V0D1 (ATPase H+ transporting V0 subunit d1) | 1 | 0.3 | migration reduced | 6080 | active
ATP6V0D1 (ATPase H+ transporting V0 subunit d1) | 2 | 0.72 | no change in migration or cell number | 5302 | inactive
ATP6V0D1 (ATPase H+ transporting V0 subunit d1) | 3 | 0.65 | no change in migration or cell number | 5319 | inactive
ATP6V0D1 (ATPase H+ transporting V0 subunit d1) | 4 | 0.98 | no change in migration or cell number | 7135 | inactive
TRMT61B (tRNA methyltransferase 61B) | 1 | 0.92 | no change in migration or cell number | 4862 | inactive
TRMT61B (tRNA methyltransferase 61B) | 2 | 0.9 | no change in migration or cell number | 3786 | inactive
TRMT61B (tRNA methyltransferase 61B) | 3 | 0.92 | no change in migration or cell number | 5532 | inactive
TRMT61B (tRNA methyltransferase 61B) | 4 | 0.78 | no change in migration or cell number | 5373 | inactive
RNASE7 (ribonuclease A family member 7) | 1 | 0.86 | no change in migration or cell number | 5800 | inactive
RNASE7 (ribonuclease A family member 7) | 2 | 0.55 | migration reduced | 6784 | active
RNASE7 (ribonuclease A family member 7) | 3 | 0.29 | migration reduced | 4117 | active
RNASE7 (ribonuclease A family member 7) | 4 | 0.63 | no change in migration or cell number | 6308 | inactive
PRKCG (protein kinase C gamma) | 1 | 0.74 | no change in migration or cell number | 5998 | inactive
PRKCG (protein kinase C gamma) | 2 | 0.94 | no change in migration or cell number | 7436 | inactive
PRKCG (protein kinase C gamma) | 3 | 1.1 | no change in migration or cell number | 5115 | inactive
PRKCG (protein kinase C gamma) | 4 | 1.04 | no change in migration or cell number | 5788 | inactive
CDK13 (cyclin dependent kinase 13) | 1 | 0.68 | no change in migration or cell number | 5296 | inactive
CDK13 (cyclin dependent kinase 13) | 2 | 0.66 | no change in migration or cell number | 5242 | inactive
CDK13 (cyclin dependent kinase 13) | 3 | 1.16 | no change in migration or cell number | 5796 | inactive
CDK13 (cyclin dependent kinase 13) | 4 | 0.88 | no change in migration or cell number | 5560 | inactive
MDH1 (malate dehydrogenase 1) | 1 | 1.02 | no change in migration or cell number | 6648 | inactive
MDH1 (malate dehydrogenase 1) | 2 | 0.62 | no change in migration or cell number | 6520 | inactive
MDH1 (malate dehydrogenase 1) | 3 | 0.66 | no change in migration or cell number | 5678 | inactive
MDH1 (malate dehydrogenase 1) | 4 | 0.44 | migration reduced | 4755 | active
LAMB3 (laminin subunit beta 3) | 1 | 1 | no change in migration or cell number | 5014 | inactive
LAMB3 (laminin subunit beta 3) | 2 | 0.67 | no change in migration or cell number | 4842 | inactive
LAMB3 (laminin subunit beta 3) | 3 | 1.04 | no change in migration or cell number | 5554 | inactive
LAMB3 (laminin subunit beta 3) | 4 | 0.59 | migration reduced | 5614 | active
CRCT1 (cysteine rich C-terminal 1) | 1 | 0.24 | migration reduced | 4300 | active
CRCT1 (cysteine rich C-terminal 1) | 2 | 0.62 | no change in migration or cell number | 6964 | inactive
CRCT1 (cysteine rich C-terminal 1) | 3 | 0.6 | migration reduced | 4348 | active
CRCT1 (cysteine rich C-terminal 1) | 4 | 0.66 | no change in migration or cell number | 5280 | inactive
DCTN6 (dynactin subunit 6) | 1 | 0.28 | migration reduced | 5172 | active
DCTN6 (dynactin subunit 6) | 2 | 1.08 | no change in migration or cell number | 4808 | inactive
DCTN6 (dynactin subunit 6) | 3 | 0.81 | no change in migration or cell number | 4968 | inactive
DCTN6 (dynactin subunit 6) | 4 | 0.86 | no change in migration or cell number | 5041 | inactive
CLIC4 (CLIC family member 4) | 1 | 1 | no change in migration or cell number | 6266 | inactive
CLIC4 (CLIC family member 4) | 2 | 0.58 | migration reduced | 5109 | active
CLIC4 (CLIC family member 4) | 3 | 0.29 | too few cells; migration not scored | 2513 | inactive
CLIC4 (CLIC family member 4) | 4 | 0.8 | no change in migration or cell number | 5152 | inactive

Only “migration and cell number class” (8 entries from above):
CRCT1 (cysteine rich C-terminal 1) #4	no change in migration or cell number
DCTN6 (dynactin subunit 6) #1	migration reduced
DCTN6 (dynactin subunit 6) #2	no change in migration or cell number
DCTN6 (dynactin subunit 6) #3	no change in migration or cell number
DCTN6 (dynactin subunit 6) #4	no change in migration or cell number
CLIC4 (CLIC family member 4) #1	no change in migration or cell number
CLIC4 (CLIC family member 4) #2	migration reduced
CLIC4 (CLIC family member 4) #3	too few cells; migration not scored
